Test results taken from patent US20110038885A1 (priority 2007, published 2011).
Numbered stars: 1 amine (or outer) side, 2 acyl side, 3 side chain; on linkers, the order of the positions; unused ones are H or OH. Bridge positions count the residues as written; N and C are the ends. Side chains are listed from the residue outwards. * marks the point of attachment. γGlu = O=C(O)[C@H](CCC(=O)[*:2])N[*:1]; Lauroyl = CCCCCCCCCCCC(=O)*; Decanoyl = CCCCCCCCCC(=O)*

Experiment: general procedure: Fmoc solid-phase peptide synthesis; Rink Amide MBHA resin (0.58 mmol/g or 0.78 mmol/g); Wang resin for C-terminal acids; DIC/HOBt
Settings: whole synthesis; for purity (crude or final not stated): scale of the general procedure 0.090 mmol

Substance	purity (crude or final not stated) (analytical HPLC)	other results
H-CPKQKWIQC-NH2 (disulfide 1-9; SMILES CC[C@H](C)[C@@H]1NC(=O)[C@H](Cc2c[nH]c3ccccc23)NC(=O)[C@H](CCCCN)NC(=O)[C@H](CCC(N)=O)NC(=O)[C@H](CCCCN)NC(=O)[C@@H]2CCCN2C(=O)[C@@H](N)CSSC[C@@H](C(N)=O)NC(=O)[C@H](CCC(N)=O)NC1=O)	93.5%	
H-CQKWIQC-NH2 (disulfide 1-7; SMILES CC[C@H](C)[C@@H]1NC(=O)[C@H](Cc2c[nH]c3ccccc23)NC(=O)[C@H](CCCCN)NC(=O)[C@H](CCC(N)=O)NC(=O)[C@@H](N)CSSC[C@@H](C(N)=O)NC(=O)[C@H](CCC(N)=O)NC1=O)	94.4%	
H-CWIQC-NH2 (disulfide 1-5; SMILES CC[C@H](C)[C@@H]1NC(=O)[C@H](Cc2c[nH]c3ccccc23)NC(=O)[C@@H](N)CSSC[C@@H](C(N)=O)NC(=O)[C@H](CCC(N)=O)NC1=O)		final HPLC purity (analytical HPLC, scale 0.068 mmol): 99%; isolated mass (scale 0.068 mmol): 13.1 mg; isolated yield (scale 0.068 mmol): yield=30%
H-DPCKQKWIQC-NH2 (disulfide 3-10; SMILES CC[C@H](C)[C@@H]1NC(=O)[C@H](Cc2c[nH]c3ccccc23)NC(=O)[C@H](CCCCN)NC(=O)[C@H](CCC(N)=O)NC(=O)[C@H](CCCCN)NC(=O)[C@@H](NC(=O)[C@@H]2CCCN2C(=O)[C@@H](N)CC(=O)O)CSSC[C@@H](C(N)=O)NC(=O)[C@H](CCC(N)=O)NC1=O)	95%	
H-DPKCQKWIQC-NH2 (disulfide 4-10; SMILES CC[C@H](C)[C@@H]1NC(=O)[C@H](Cc2c[nH]c3ccccc23)NC(=O)[C@H](CCCCN)NC(=O)[C@H](CCC(N)=O)NC(=O)[C@@H](NC(=O)[C@H](CCCCN)NC(=O)[C@@H]2CCCN2C(=O)[C@@H](N)CC(=O)O)CSSC[C@@H](C(N)=O)NC(=O)[C@H](CCC(N)=O)NC1=O)	99%	
H-K(Lauroyl)DCLDPKQKWIQC-NH2 (disulfide 3-13; SMILES CCCCCCCCCCCC(=O)NCCCC[C@H](N)C(=O)N[C@@H](CC(=O)O)C(=O)N[C@H]1CSSC[C@@H](C(N)=O)NC(=O)[C@H](CCC(N)=O)NC(=O)[C@H]([C@@H](C)CC)NC(=O)[C@H](Cc2c[nH]c3ccccc23)NC(=O)[C@H](CCCCN)NC(=O)[C@H](CCC(N)=O)NC(=O)[C@H](CCCCN)NC(=O)[C@@H]2CCCN2C(=O)[C@H](CC(=O)O)NC(=O)[C@H](CC(C)C)NC1=O)	97%	
H-K(Lauroyl)ICLDPKQKWIQC-NH2 (disulfide 3-13; SMILES CCCCCCCCCCCC(=O)NCCCC[C@H](N)C(=O)N[C@H](C(=O)N[C@H]1CSSC[C@@H](C(N)=O)NC(=O)[C@H](CCC(N)=O)NC(=O)[C@H]([C@@H](C)CC)NC(=O)[C@H](Cc2c[nH]c3ccccc23)NC(=O)[C@H](CCCCN)NC(=O)[C@H](CCC(N)=O)NC(=O)[C@H](CCCCN)NC(=O)[C@@H]2CCCN2C(=O)[C@H](CC(=O)O)NC(=O)[C@H](CC(C)C)NC1=O)[C@@H](C)CC)	99%	
H-K([γGlu-Decanoyl])CLDPKQKWIQC-NH2 (disulfide 2-12; SMILES CCCCCCCCCC(=O)N[C@@H](CCC(=O)NCCCC[C@H](N)C(=O)N[C@H]1CSSC[C@@H](C(N)=O)NC(=O)[C@H](CCC(N)=O)NC(=O)[C@H]([C@@H](C)CC)NC(=O)[C@H](Cc2c[nH]c3ccccc23)NC(=O)[C@H](CCCCN)NC(=O)[C@H](CCC(N)=O)NC(=O)[C@H](CCCCN)NC(=O)[C@@H]2CCCN2C(=O)[C@H](CC(=O)O)NC(=O)[C@H](CC(C)C)NC1=O)C(=O)O)	94%	
H-KCQKWIQC-NH2 (disulfide 2-8; SMILES CC[C@H](C)[C@@H]1NC(=O)[C@H](Cc2c[nH]c3ccccc23)NC(=O)[C@H](CCCCN)NC(=O)[C@H](CCC(N)=O)NC(=O)[C@@H](NC(=O)[C@@H](N)CCCCN)CSSC[C@@H](C(N)=O)NC(=O)[C@H](CCC(N)=O)NC1=O)	97.6%	
H-KCWIQC-NH2 (disulfide 2-6; SMILES CC[C@H](C)[C@@H]1NC(=O)[C@H](Cc2c[nH]c3ccccc23)NC(=O)[C@@H](NC(=O)[C@@H](N)CCCCN)CSSC[C@@H](C(N)=O)NC(=O)[C@H](CCC(N)=O)NC1=O)	96.5%	
H-KQCKWIQC-NH2 (disulfide 3-8; SMILES CC[C@H](C)[C@@H]1NC(=O)[C@H](Cc2c[nH]c3ccccc23)NC(=O)[C@H](CCCCN)NC(=O)[C@@H](NC(=O)[C@H](CCC(N)=O)NC(=O)[C@@H](N)CCCCN)CSSC[C@@H](C(N)=O)NC(=O)[C@H](CCC(N)=O)NC1=O)	95%	
H-KWCIQC-NH2 (disulfide 3-6; SMILES CC[C@H](C)[C@@H]1NC(=O)[C@@H](NC(=O)[C@H](Cc2c[nH]c3ccccc23)NC(=O)[C@@H](N)CCCCN)CSSC[C@@H](C(N)=O)NC(=O)[C@H](CCC(N)=O)NC1=O)	90%	
H-LCDPKQKWIQC-NH2 (disulfide 2-11; SMILES CC[C@H](C)[C@@H]1NC(=O)[C@H](Cc2c[nH]c3ccccc23)NC(=O)[C@H](CCCCN)NC(=O)[C@H](CCC(N)=O)NC(=O)[C@H](CCCCN)NC(=O)[C@@H]2CCCN2C(=O)[C@H](CC(=O)O)NC(=O)[C@@H](NC(=O)[C@@H](N)CC(C)C)CSSC[C@@H](C(N)=O)NC(=O)[C@H](CCC(N)=O)NC1=O)	92%	
H-LDCPKQKWIQC-NH2 (disulfide 3-11; SMILES CC[C@H](C)[C@@H]1NC(=O)[C@H](Cc2c[nH]c3ccccc23)NC(=O)[C@H](CCCCN)NC(=O)[C@H](CCC(N)=O)NC(=O)[C@H](CCCCN)NC(=O)[C@@H]2CCCN2C(=O)[C@@H](NC(=O)[C@H](CC(=O)O)NC(=O)[C@@H](N)CC(C)C)CSSC[C@@H](C(N)=O)NC(=O)[C@H](CCC(N)=O)NC1=O)	96%	
H-LDPCKQKWIQC-NH2 (disulfide 4-11; SMILES CC[C@H](C)[C@@H]1NC(=O)[C@H](Cc2c[nH]c3ccccc23)NC(=O)[C@H](CCCCN)NC(=O)[C@H](CCC(N)=O)NC(=O)[C@H](CCCCN)NC(=O)[C@@H](NC(=O)[C@@H]2CCCN2C(=O)[C@H](CC(=O)O)NC(=O)[C@@H](N)CC(C)C)CSSC[C@@H](C(N)=O)NC(=O)[C@H](CCC(N)=O)NC1=O)	90.2%	
H-LDPKQCKWIQC-NH2 (disulfide 6-11; SMILES CC[C@H](C)[C@@H]1NC(=O)[C@H](Cc2c[nH]c3ccccc23)NC(=O)[C@H](CCCCN)NC(=O)[C@@H](NC(=O)[C@H](CCC(N)=O)NC(=O)[C@H](CCCCN)NC(=O)[C@@H]2CCCN2C(=O)[C@H](CC(=O)O)NC(=O)[C@@H](N)CC(C)C)CSSC[C@@H](C(N)=O)NC(=O)[C@H](CCC(N)=O)NC1=O)	86%	
H-LDPKQKCWIQC-NH2 (disulfide 7-11; SMILES CC[C@H](C)[C@@H]1NC(=O)[C@H](Cc2c[nH]c3ccccc23)NC(=O)[C@@H](NC(=O)[C@H](CCCCN)NC(=O)[C@H](CCC(N)=O)NC(=O)[C@H](CCCCN)NC(=O)[C@@H]2CCCN2C(=O)[C@H](CC(=O)O)NC(=O)[C@@H](N)CC(C)C)CSSC[C@@H](C(N)=O)NC(=O)[C@H](CCC(N)=O)NC1=O)	87%	
H-LDPKQKWCIQC-NH2 (disulfide 8-11; SMILES CC[C@H](C)[C@@H]1NC(=O)[C@@H](NC(=O)[C@H](Cc2c[nH]c3ccccc23)NC(=O)[C@H](CCCCN)NC(=O)[C@H](CCC(N)=O)NC(=O)[C@H](CCCCN)NC(=O)[C@@H]2CCCN2C(=O)[C@H](CC(=O)O)NC(=O)[C@@H](N)CC(C)C)CSSC[C@@H](C(N)=O)NC(=O)[C@H](CCC(N)=O)NC1=O)	88%	
